Experimental data as given in PubChem BioAssay AID662 (National Center for Advancing Translational Sciences (NCATS), 2007).
Some of the results follow. The main result of the screen is listed elsewhere. These columns were measured beside it and carry no call. Most of these compounds were active or inconclusive in the main read-out, so they are no random draw. Words in brackets tell the shape of the fitted curve; partial curves, single points and poor fits give uncertain potencies.

Assay: Cell signaling CRE-BLA (Fsk stim)
Conditions: CHO CRE-bla reporter (cAMP response element driving beta-lactamase), forskolin EC10, beta-lactamase ratio; measured here: 460 nm blue channel
How it was run: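 Forskolin analogue NKH 477 at EC10 stimulated CRE-driven beta-lactamase in CHO cells alongside compound dilution series. Beta-lactamase was measured with CCF4, excitation 405 nm, emission ratio 460/530 nm.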

Row | Structure (SMILES) | AC50
1 | CCOC(=O)c1c(C)oc2cc(Br)c(OC)cc12 | 15.8 µM [rising, single point]
2 | COc1ccc2nc(N3CCC(C)CC3)c(C#N)cc2c1 | 10 µM [rising, partial curve]
3 | CCOC(=O)N1CCN(C(=O)c2cccc(-n3c(=S)[nH]c4cc(Cl)ccc4c3=O)c2)CC1 | 12.6 µM [rising, single point]
4 | COc1ccc(-n2c(=O)c(-c3ccc(Cl)cc3)nc3cncnc32)cc1 | 15.8 µM [rising, partial curve]
5 | CC(=O)Oc1ccc(N2C(=O)CC(N3CCOCC3)C2=O)cc1 (stereo not drawn) | 0.158 µM [rising, full curve]
6 | COc1ccc(C(C)=O)cc1COC(=O)c1cccc(N(C)C)c1 | 10 µM [rising, single point]
7 | Cc1cc(C)nc(NS(=O)(=O)c2ccc(NC(=O)C3CC(=O)N(c4ccccc4)C3)cc2)n1 (stereo not drawn) | 0.501 µM [rising, partial curve]
8 | CSC(=O)CC(=O)NC(=O)c1ccccc1 | 1 µM [falling, full curve]
9 | Cc1c(C#N)c2ncn(Cc3ccccc3)c(=O)c2n1-c1ccccc1 | 15.8 µM [rising, partial curve]
10 | O=C(Nc1ccc(S(=O)(=O)N2CCCc3ccccc32)cc1)C1CCCO1 (stereo not drawn) | 20 µM [rising, partial curve, poor fit]
11 | O=C(NCCCN1CCOCC1)c1cccs1 | 15.8 µM [falling, partial curve]
12 | COc1ccc(-c2cc3nc(C4CCN(C(=O)OC(C)(C)C)CC4)c(C(=O)O)cn3n2)cc1 | 3.98 µM [rising, full curve]
13 | Cc1ccc(-n2ncc3c(=O)[nH]c(SCC(=O)N4CCN(c5ccccc5)CC4)nc32)cc1 | 25.1 µM [falling, single point]
14 | CCOc1ccc(Cc2nc(C)c(CC(=O)N3CCCCC3)c(=O)[nH]2)cc1 | 0.398 µM [falling, partial curve]
15 | Cc1cc(=O)[nH]c(SCn2nnc3ccccc3c2=O)n1 | 12.6 µM [rising, single point]
16 | COC(=O)c1ccccc1NC(=O)c1ccccc1NS(C)(=O)=O | 10 µM [rising, partial curve]
17 | CCOC(=O)C1=C(C)NC2=C(C(=O)c3ccccc32)C1c1cccnc1 (stereo not drawn) | 0.631 µM [rising, full curve]
18 | CC1(C)CC(=O)c2sc(N3CCCCC3)nc2C1 | 2.51 µM [falling, full curve]
19 | COC(=O)c1ccc(NC(=O)CSc2nnc(-c3ccncc3)n2N)cc1 | 2 µM [falling, full curve]
20 | O=C(c1ccco1)N1CCC(c2nc(-c3ccc(F)cc3)no2)CC1 | 31.6 µM [falling, single point]
21 | CCC1(c2ccccc2)NC(=O)N(CC(=O)Nc2ccc3c(c2)OCO3)C1=O (stereo not drawn) | 3.16 µM [falling, partial curve, poor fit]
22 | COCCCNC(=O)CSc1nc2ccc(N3CCOCC3)cc2c(=O)n1CCc1ccccc1 | 0.00316 µM [rising, full curve, poor fit]

Fetched by structure from the entries so far:
Row | Structure (SMILES) | AC50
7 | Cc1cc(C)nc(NS(=O)(=O)c2ccc(NC(=O)C3CC(=O)N(c4ccccc4)C3)cc2)n1 (stereo not drawn) | 0.501 µM [rising, partial curve]
4 | COc1ccc(-n2c(=O)c(-c3ccc(Cl)cc3)nc3cncnc32)cc1 | 15.8 µM [rising, partial curve]

Later entries

Row | Structure (SMILES) | AC50
23 | COc1ccc(-c2noc(-c3ccccc3C(=O)Nc3cccnc3)n2)cc1 | 3.16 µM [falling, single point]
24 | CCCc1noc(-c2ccc(-c3ccccc3)cc2)n1 | 0.0251 µM [falling, full curve, poor fit]
25 | COc1cccc(-c2ccc3ncnc(NCc4cccs4)c3c2)c1 | 15.8 µM [falling, single point]
26 | c1ccc(-c2csc3nnc(SCc4ccc5c(c4)OCCO5)n23)cc1 | 7.94 µM [rising, partial curve]
27 | Cn1c(=O)c2c(nc(CN3CCC(C(N)=O)CC3)n2Cc2c(F)cccc2Cl)n(C)c1=O | 10 µM [rising, partial curve]
28 | COc1ccc(C(C)=O)cc1CSc1nc2ccccc2o1 | 6.31 µM [rising, partial curve]
29 | Cc1ccc(C)c(C(=O)c2c(C)nc3sccn23)c1 | 15.8 µM [rising, single point]
30 | COCCn1c(=O)c(-c2ccc(Cl)cc2)nc2cnc(N(C)C)nc21 | 15.8 µM [rising, partial curve]
31 | CO[C@@]12C[C@@H](COC(=O)c3cncc(Br)c3)CN(C)[C@H]1Cc1cn(C)c3cccc2c13 | 31.6 µM [falling, single point]
32 | CCOc1ccc(C(=O)N(CN2CCCC2=O)c2ccccc2)cc1 | 0.0158 µM [falling, full curve, poor fit]
33 | N#Cc1ccccc1NC(=O)c1ccccc1OCC(=O)NCc1ccco1 | 12.6 µM [falling, single point]
34 | CCOc1ccc(NC(=O)CSc2nnc(-c3ccccn3)n2N)cc1 | 3.98 µM [falling, full curve, poor fit]
35 | Cc1nc(N2CCC3(CC2)OCCO3)c2nnn(Cc3ccccc3F)c2n1 | 0.126 µM [falling, full curve]
36 | Cc1ccccc1Cc1c(C)nc2c(C(=O)NCc3ccco3)cnn2c1C | 1.58 µM [rising, partial curve]
37 | Cc1cnc(N)c2c(=O)oc3ccccc3c12 | 12.6 µM [rising, partial curve]
38 | CCN1C(=O)c2ccccc2S(=O)c2ccc(C(=O)NCc3ccccn3)cc21 (stereo not drawn) | 12.6 µM [rising, single point]
39 | COC(=O)c1ccccc1NC(=O)CSc1nc2ccccc2c(=O)[nH]1 | 1 µM [rising, full curve]
40 | COC(=O)Cc1c(C)c2ccc(OC(=O)c3ccco3)cc2oc1=O | 12.6 µM [rising, partial curve]
41 | O=C(Nc1nccs1)c1ccc(COc2ccc(Cl)cc2)o1 | 12.6 µM [rising, single point]
42 | O=C(NCCO)c1ccc2c(c1)S(=O)(=O)c1ccccc1C2=O | 12.6 µM [rising, single point]
43 | COc1cc(C(=O)Nc2nc3ccccc3[nH]2)cc(OC)c1OC | 2 µM [rising, single point]
